# Counter-ions that a name gives are not always drawn. Some of the results follow. This data set is noisy: repeats of one test often differ as much as different tests do.
# Test system: Brugia pahangi adult female
# Assay: motility inhibition on day 3 relative to DMSO vehicle; higher = more active
# Settings: 10 µM; 3 days
row,SMILES,motility inhibition on day 3 [%]
1,O=C(O)COCCN1CCN([C@H](c2ccccc2)c2ccc(Cl)cc2)CC1 [levocetirizine dihydrochloride],2.43
2,CC(O)(P(=O)(O)O)P(=O)(O)O [etidronate disodium],2.98
3,CCC1NC(=O)c2cc(S(N)(=O)=O)c(Cl)cc2N1 (stereo unspecified) [quinethazone],31.8
4,COC(=O)C1=C(C)NC(C)=C(C(=O)OCC(C)C)C1c1ccccc1[N+](=O)[O-] (stereo unspecified) [nisoldipine],74.9
5,COc1ccc(C(=O)Nc2ccccc2CCC2CCCCN2C)cc1 (stereo unspecified) [Encainide hydrochloride],8.03
6,CN1CCN(c2c(F)cc3c(=O)c(C(=O)O)cn4c3c2SCC4)CC1 [rufloxacin hydrochloride],13.2
7,COC(=O)C1=C(C)NC(C)=C(C(=O)OCCN(C)Cc2ccccc2)C1c1cccc([N+](=O)[O-])c1 (stereo unspecified) [Nicardipine hydrochloride],9.08
8,O=C1C(O)=C([C@H]2CC[C@H](c3ccc(Cl)cc3)CC2)C(=O)c2ccccc21 [atovaquone],95.9
9,Cc1ccccc1C(OCCN(C)C)c1ccccc1 (stereo unspecified) [orphenadrine citrate],6.19
10,COc1c2ccoc2cc2oc(=O)ccc12 [bergapten],24.9
11,CN(C)CCOC(c1ccc(Cl)cc1)c1ccccn1 (stereo unspecified) [carbinoxamine maleate],3.51
12,O=C1CCc2ccc(OCCCCN3CCN(c4cccc(Cl)c4Cl)CC3)cc2N1 [aripiprazole],1.8
13,NC(=O)NC1NC(=O)NC1=O (stereo unspecified) [allantoin],8.92
14,O=C1CCC(N2C(=O)c3ccccc3C2=O)C(=O)N1 (stereo unspecified) [thalidomide],3.08
15,CC1(C)S[C@@H]2[C@H](NC(=O)Cc3ccccc3)C(=O)N2[C@H]1C(=O)O [penicillin g potassium],1.07
16,CCCCc1nc(Cl)c(CO)n1Cc1ccc(-c2ccccc2-c2nnn[nH]2)cc1 [losartan],< 0
17,C=CCCCCCCCCC(=O)O [undecylenic acid],28
18,CCN(CC)CCNC(=O)COc1ccc(OC)cc1 [mefexamide],10.8
19,Cc1nc2n(c(=O)c1CCN1CCC(c3noc4cc(F)ccc34)CC1)CCCC2O (stereo unspecified) [paliperidone],2.03
20,CCOc1ccc(NC(=O)CC(C)O)cc1 (stereo unspecified) [bucetin],5.95
21,Clc1ccc(C(Cn2ccnc2)OCc2csc3c(Cl)cccc23)c(Cl)c1 (stereo unspecified) [Sertaconazole nitrate],99.8
22,CC(=O)OCC1=C(C(=O)O)N2C(=O)[C@@H](NC(=O)Cc3cccs3)[C@H]2SC1 [cephalothin sodium],5.21
23,CC(N)C(=O)OC(C)(C)Cc1ccc(Cl)cc1 (stereo unspecified) [Alaproclate hydrochloride],6.23
24,C[C@H]1[C@H](OC(=O)CCC(=O)O)O[C@@H]2O[C@@]3(C)CC[C@H]4[C@H](C)CC[C@@H]1[C@@]24OO3 [Artesunate],< 0
25,C[C@H]1[C@H](OC(=O)CCC(=O)O)O[C@@H]2O[C@@]3(C)CC[C@H]4[C@H](C)CC[C@@H]1[C@@]24OO3 [artesunate],8.13
26,O=C(O)CCNC(=O)c1ccc(/N=N/c2ccc(O)c(C(=O)O)c2)cc1 [balsalazide disodium],17.2

# Looked up above:
# motility inhibition on day 3 [%], COc1c2ccoc2cc2oc(=O)ccc12 [bergapten] is entered as 24.9
# motility inhibition on day 3 [%], Clc1ccc(C(Cn2ccnc2)OCc2csc3c(Cl)cccc23)c(Cl)c1 (stereo unspecified) [Sertaconazole nitrate] is entered as 99.8
# motility inhibition on day 3 [%], CC(O)(P(=O)(O)O)P(=O)(O)O [etidronate disodium] is entered as 2.98
# motility inhibition on day 3 [%], CCCCc1nc(Cl)c(CO)n1Cc1ccc(-c2ccccc2-c2nnn[nH]2)cc1 [losartan] is entered as < 0

# (further entries)

row,SMILES,motility inhibition on day 3 [%]
1,CCC(C)n1ncn(-c2ccc(N3CCN(c4ccc(OCC5COC(Cn6cncn6)(c6ccc(Cl)cc6Cl)O5)cc4)CC3)cc2)c1=O (stereo unspecified) [Itraconazole],79.7
2,Cc1cccc(Nc2ccccc2C(=O)O)c1C [mefenamic acid],35.3
3,CNCCCN1c2ccccc2CCc2ccccc21 [Desipramine hydrochloride],0.484
4,O=C1OC(CN2CCOCC2)CN1/N=C/c1ccc([N+](=O)[O-])o1 (stereo unspecified) [furaltadone],< 0
5,CC[n+]1c(-c2ccccc2)c2cc(N)ccc2c2ccc(N)cc21 [homidium bromide],86.7
6,C[n+]1ccccc1C=NO [Pralidoxime iodide],2.66
7,O=C(O)CN(CCN(CC(=O)O)CC(=O)O)CCN(CC(=O)O)CC(=O)O [pentetic acid],3.26
8,C#CCN(C)CCCOc1ccc(Cl)cc1Cl [Clorgyline hydrochloride],24.9
9,CC(C)NCC(O)c1cc(O)cc(O)c1 (stereo unspecified) [metaproterenol],47
10,CCN(CC)Cc1cc(Nc2ccnc3cc(Cl)ccc23)ccc1O [amodiaquine dihydrochloride],30.7
11,O=C(/C=C/C=C/c1ccc2c(c1)OCO2)N1CCCCC1 [piperine],< 0
12,CCC(=O)OCC(=O)[C@@]1(OC(=O)CC)[C@@H](C)C[C@H]2[C@@H]3CCC4=CC(=O)C=C[C@]4(C)[C@@]3(Cl)[C@@H](O)C[C@@]21C [beclomethasone dipropionate],< 0
13,COc1ccccc1N1CCN(CCCNc2cc(=O)n(C)c(=O)n2C)CC1 [Urapidil hydrochloride],9.11
14,COc1cc(C)c2c(Oc3cccc(C(F)(F)F)c3)c(OC)cc(NC(C)CCCN)c2n1 (stereo unspecified) [Tafenoquine Succinate],63.1
15,CC(=O)Oc1cc2c(s1)CCN(C(C(=O)C1CC1)c1ccccc1F)C2 (stereo unspecified) [prasugrel],3.39
16,Cn1cnc([N+](=O)[O-])c1Sc1ncnc2[nH]cnc12 [Azathioprine],41.8
17,CC(C)C(=O)Nc1ccc([N+](=O)[O-])c(C(F)(F)F)c1 [flutamide],36.6
18,OCCN1C[C@H](O)[C@@H](O)[C@H](O)[C@H]1CO [miglitol],< 0
19,CC(=O)OCC[N+](C)(C)C [acetylcholine],7.1
20,COC(=O)C1=C(C)NC(C)=C(C(=O)OC(C)C)C1c1cccc2nonc12 (stereo unspecified) [isradipine],97.1
21,CC(=O)SCC(Cc1ccccc1)C(=O)NCC(=O)OCc1ccccc1 (stereo unspecified) [racecadotril],18.9
22,CC1COc2c(N3CCN(C)CC3)c(F)cc3c(=O)c(C(=O)O)cn1c23 (stereo unspecified) [ofloxacin],12.6
23,O=C(O)CCCC[C@@H]1SC[C@@H]2NC(=O)N[C@@H]21 [biotin],8.22
24,CN1CCN(c2cc3c(cc2F)c(=O)c(C(=O)O)cn3-c2ccc(F)cc2)CC1 [difloxacin hydrochloride],20.6
25,C[C@H]1COc2c(N3CCN(C)CC3)c(F)cc3c(=O)c(C(=O)O)cn1c23 [levofloxacin],1.32
